According to US6617427:
Results are given in words; binding and its absence hold for the method and conditions named. Some binding calls cover weakened binding; strength is not graded here. Sequences can lack the tags named with a protein.

Chains of the proteins cited; added tags and fusions are not shown. Lines headed by an entry give the natural chain unless they say otherwise; changes in a name come on top.
UniProt P0A7C2: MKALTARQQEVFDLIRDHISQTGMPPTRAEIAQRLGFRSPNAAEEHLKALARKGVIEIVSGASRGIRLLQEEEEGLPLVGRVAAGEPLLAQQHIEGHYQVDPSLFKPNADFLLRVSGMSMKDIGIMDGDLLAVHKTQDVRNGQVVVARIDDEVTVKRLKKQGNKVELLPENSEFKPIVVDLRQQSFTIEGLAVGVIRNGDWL

Molecular target: LexA-Raf-1 (human) (UniProt P0A7C2+P04049)
Assay: yeast two-hybrid

B1: B42-Tvl-1 fusion (Tvl-1 a.a. 81-269 fused to the activation domain B42) (protein, not shown: large carriers)
chain: VSALPATLDSLSIHQLAAQGELSQLKDHLRKGACPACTCLSGNNLINKPDERGFTPLIWASAFGEIETVRFLLDWGADPHILAKERESALSLASMGGYTDIVRLLLDRDVDINIYDWNGGTPLLYAVRGNHVKCVEALLARGADLTTEADSGYTPMDLAVALGYRKVQQVMESHILRLFQSTLGPVDPE
B1 was tested, and the binding was “binds”.
